One compound from US20040002537A1, “Use of statins in the treatment of autoimmune disease” (priority 2002, published 2004) can be followed below.

The subject of one assay is CNS infiltrates. As to conditions: C57BL/6 brains, 1 and 10 mg/kg, day 11 of treatment, versus PBS treated mice, FIG. 2.
In the next assay the test system is CIITA. As to conditions: SJL/J mice, 1 or 10 mg/kg oral for 12 days.

For `CC(C)c1c(C(=O)Nc2ccccc2)c(-c2ccccc2)c(-c2ccc(F)cc2)n1CC[C@@H](O)C[C@@H](O)CC(=O)O` [atorvastatin], in the assay with CNS infiltrates, the “Number and size of CNS infiltrates (H&E staining)” value is “reduction in number and size of CNS infiltrates”. The “CIITA PI transcript expression in brain” value in the assay on CIITA (FIG. 3B) is reported as “dose dependent inhibition”. Besides, the “CIITA PIII transcript expression in brain” value with CIITA (FIG. 3C) is “dose dependent inhibition”. Further, the “CIITA PIV transcript expression in brain” value in the assay on CIITA (FIG. 3D) is listed as “dose dependent inhibition”. Moreover, the “Total expression of CIITA transcripts in brain” value in the assay with CIITA (day 10 of EAE, FIG. 3A) is on record as “inhibited the total expression of CIITA transcripts in a dose response matter”.
